Assay results reported in patent US6746990B2, “2-phenyl-substituted heterocyclic 1,3-ketoenols as herbicides and pesticides” (Bayer Aktiengesellschaft, priority 1995, dated 2004).
Some entries share one result that the patent states for a list of compounds. At least one compound was matched to its structure with a doubt left.

Test system: caterpillars of the diamond-back moth (Plutella maculipennis)
Assay: Plutella test
Type: in vivo
Conditions: after 7 days; active compound concentration 0.1%; cabbage leaves dipped

| SMILES | destruction in % |
| --- | --- |
| CC1CCC2(CC1)NC(=O)C(c1ccc(S(C)(=O)=O)cc1Cl)=C2O (centres unmarked) [Example I-1-a-1] | at least 85% |
| CCOC(=O)OC1=C(c2ccc(S(C)(=O)=O)cc2Cl)C(=O)NC12CCC(C)CC2 (centres unmarked) [Example I-1-c-1] | at least 85% |
